Binding data for one substance are collected here from PMC10612308.

The chains behind the UniProt entries cited, without tags or fusion partners.
UniProt Q9BVK8: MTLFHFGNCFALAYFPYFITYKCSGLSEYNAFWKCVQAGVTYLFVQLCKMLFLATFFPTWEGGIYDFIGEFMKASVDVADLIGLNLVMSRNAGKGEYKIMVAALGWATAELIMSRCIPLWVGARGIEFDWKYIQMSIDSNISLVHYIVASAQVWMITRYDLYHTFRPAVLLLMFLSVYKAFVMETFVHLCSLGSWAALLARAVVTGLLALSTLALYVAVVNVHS
UniProt P52630: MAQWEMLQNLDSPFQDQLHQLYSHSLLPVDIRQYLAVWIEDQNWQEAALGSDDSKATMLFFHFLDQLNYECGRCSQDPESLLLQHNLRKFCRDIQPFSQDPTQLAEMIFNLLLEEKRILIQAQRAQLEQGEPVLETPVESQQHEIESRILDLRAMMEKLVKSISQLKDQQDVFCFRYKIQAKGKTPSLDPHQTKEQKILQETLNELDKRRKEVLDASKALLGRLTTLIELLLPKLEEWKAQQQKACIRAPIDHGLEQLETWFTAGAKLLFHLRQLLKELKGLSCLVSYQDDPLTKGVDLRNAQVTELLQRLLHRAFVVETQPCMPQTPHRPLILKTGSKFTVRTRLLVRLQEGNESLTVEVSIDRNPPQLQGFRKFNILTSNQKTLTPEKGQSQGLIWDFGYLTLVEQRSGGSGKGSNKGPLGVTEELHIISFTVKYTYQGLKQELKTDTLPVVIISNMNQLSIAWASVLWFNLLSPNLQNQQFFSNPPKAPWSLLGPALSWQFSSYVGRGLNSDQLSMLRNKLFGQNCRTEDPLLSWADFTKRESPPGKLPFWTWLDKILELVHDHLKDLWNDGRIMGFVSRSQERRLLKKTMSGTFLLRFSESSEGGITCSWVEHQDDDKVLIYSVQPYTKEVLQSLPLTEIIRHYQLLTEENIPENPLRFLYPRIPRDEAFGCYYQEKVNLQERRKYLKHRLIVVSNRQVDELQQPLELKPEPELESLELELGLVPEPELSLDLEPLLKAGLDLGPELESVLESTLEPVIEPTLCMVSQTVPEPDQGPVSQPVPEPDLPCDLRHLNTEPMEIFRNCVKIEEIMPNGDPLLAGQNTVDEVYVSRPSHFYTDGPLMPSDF

No constants are given. Whether binding was seen depends on the method and setting. Binding seen in cells or lysates may run through a third protein. A yes stands for co-enrichment or nearness to the bait. Other partners may have been found.

This assay concerns the target Flag-TMEM147 (transmembrane protein 147) (human) (UniProt Q9BVK8). Description: affinity purification with mass spectrometry; extracts of Huh7 and HepG2 cells incubated with anti-Flag-TMEM147 or IgG, protein A/G agarose beads; bands specific for Flag-TMEM147 excised from the gel, MALDI-TOF-MS.

As for “signal transducer and activator of transcription 2 (STAT2) (from UniProt P52630 1-851)”, the binding entry is on record as “binds”.
